These are yes or no findings as the source states them, for the method shown. In cells and extracts the contact can be indirect. A yes stands for co-enrichment or nearness to the bait. Other partners may have been found.
molecular target: T1, Eomesodermin (EOMES), endogenous, in activated mouse CD8+ T cells (mouse (endogenous in CD8+ T cells of Balb/c mice)) (UniProt O54839); assay: affinity purification with mass spectrometry; RIME: activated mouse CD8+ T cells fixed with 1% formaldehyde, chromatin sheared to 300-500 bp, immunoprecipitated with anti-EOMES or control IgG on protein G magnetic beads, on-bead trypsin digest, LC-MS/MS
T1 sequence: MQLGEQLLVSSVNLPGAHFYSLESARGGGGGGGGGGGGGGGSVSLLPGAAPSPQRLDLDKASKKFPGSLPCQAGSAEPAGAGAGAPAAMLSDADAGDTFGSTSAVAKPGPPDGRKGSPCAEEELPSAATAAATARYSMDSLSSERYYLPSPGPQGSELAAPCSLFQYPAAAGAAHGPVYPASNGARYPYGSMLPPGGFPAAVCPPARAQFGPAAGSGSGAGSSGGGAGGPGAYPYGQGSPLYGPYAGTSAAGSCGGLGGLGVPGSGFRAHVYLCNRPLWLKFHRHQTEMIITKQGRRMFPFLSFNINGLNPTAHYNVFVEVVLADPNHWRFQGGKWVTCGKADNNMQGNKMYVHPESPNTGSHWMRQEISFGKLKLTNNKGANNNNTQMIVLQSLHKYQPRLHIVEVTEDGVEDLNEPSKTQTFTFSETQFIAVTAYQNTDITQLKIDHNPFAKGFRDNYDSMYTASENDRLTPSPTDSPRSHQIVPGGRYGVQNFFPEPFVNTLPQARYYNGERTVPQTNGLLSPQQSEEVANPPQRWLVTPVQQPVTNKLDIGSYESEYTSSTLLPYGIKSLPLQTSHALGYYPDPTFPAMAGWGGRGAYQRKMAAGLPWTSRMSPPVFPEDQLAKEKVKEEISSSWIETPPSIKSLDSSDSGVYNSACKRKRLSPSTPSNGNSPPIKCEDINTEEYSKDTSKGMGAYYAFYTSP

Amino acid sequences for entries named in this document (tags omitted).
UniProt Q6PDQ2: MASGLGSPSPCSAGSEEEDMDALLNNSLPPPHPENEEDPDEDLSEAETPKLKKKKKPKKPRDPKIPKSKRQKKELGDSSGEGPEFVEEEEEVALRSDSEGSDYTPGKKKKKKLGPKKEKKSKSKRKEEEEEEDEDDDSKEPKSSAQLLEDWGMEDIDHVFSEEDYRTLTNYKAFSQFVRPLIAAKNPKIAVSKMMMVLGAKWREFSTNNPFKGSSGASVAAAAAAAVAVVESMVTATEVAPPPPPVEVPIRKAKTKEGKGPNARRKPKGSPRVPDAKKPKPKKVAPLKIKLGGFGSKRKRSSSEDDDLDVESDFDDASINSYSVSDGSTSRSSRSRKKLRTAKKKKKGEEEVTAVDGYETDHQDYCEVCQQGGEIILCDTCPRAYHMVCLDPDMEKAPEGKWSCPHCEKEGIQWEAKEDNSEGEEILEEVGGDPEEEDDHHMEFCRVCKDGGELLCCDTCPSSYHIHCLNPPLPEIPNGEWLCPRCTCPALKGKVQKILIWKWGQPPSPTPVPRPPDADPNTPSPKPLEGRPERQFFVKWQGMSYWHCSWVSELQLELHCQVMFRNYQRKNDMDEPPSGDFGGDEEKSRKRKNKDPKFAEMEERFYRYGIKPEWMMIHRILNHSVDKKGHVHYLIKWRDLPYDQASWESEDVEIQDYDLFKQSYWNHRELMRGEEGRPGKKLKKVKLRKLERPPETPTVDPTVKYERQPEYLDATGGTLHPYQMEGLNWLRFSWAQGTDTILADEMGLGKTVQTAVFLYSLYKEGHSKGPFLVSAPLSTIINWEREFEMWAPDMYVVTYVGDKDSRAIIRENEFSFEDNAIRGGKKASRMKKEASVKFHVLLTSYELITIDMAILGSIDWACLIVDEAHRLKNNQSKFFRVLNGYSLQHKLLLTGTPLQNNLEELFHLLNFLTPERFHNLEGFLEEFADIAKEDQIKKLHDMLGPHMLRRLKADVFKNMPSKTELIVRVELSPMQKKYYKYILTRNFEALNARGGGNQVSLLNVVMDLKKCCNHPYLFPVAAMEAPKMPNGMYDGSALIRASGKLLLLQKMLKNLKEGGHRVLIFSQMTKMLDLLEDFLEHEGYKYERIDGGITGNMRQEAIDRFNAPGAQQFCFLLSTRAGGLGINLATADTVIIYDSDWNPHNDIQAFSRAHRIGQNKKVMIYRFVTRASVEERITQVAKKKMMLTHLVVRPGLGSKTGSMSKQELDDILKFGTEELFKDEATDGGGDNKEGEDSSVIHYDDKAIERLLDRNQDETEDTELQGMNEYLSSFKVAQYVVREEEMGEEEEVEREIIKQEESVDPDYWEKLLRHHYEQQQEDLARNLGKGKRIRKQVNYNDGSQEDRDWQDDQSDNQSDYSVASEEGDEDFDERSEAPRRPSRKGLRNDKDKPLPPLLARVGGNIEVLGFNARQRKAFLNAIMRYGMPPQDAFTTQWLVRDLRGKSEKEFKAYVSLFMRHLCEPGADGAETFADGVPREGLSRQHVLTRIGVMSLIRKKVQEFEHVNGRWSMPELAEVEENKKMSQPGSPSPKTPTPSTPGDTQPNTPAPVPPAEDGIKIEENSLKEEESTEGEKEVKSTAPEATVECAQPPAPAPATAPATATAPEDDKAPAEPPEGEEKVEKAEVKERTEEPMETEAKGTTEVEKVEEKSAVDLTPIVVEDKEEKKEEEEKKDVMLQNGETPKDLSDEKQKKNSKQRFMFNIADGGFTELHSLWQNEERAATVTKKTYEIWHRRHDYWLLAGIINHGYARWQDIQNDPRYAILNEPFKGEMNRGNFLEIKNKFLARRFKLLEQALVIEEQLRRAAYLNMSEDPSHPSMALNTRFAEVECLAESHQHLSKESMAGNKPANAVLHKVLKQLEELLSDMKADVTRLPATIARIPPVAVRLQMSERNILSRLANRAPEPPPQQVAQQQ
UniProt Q03267: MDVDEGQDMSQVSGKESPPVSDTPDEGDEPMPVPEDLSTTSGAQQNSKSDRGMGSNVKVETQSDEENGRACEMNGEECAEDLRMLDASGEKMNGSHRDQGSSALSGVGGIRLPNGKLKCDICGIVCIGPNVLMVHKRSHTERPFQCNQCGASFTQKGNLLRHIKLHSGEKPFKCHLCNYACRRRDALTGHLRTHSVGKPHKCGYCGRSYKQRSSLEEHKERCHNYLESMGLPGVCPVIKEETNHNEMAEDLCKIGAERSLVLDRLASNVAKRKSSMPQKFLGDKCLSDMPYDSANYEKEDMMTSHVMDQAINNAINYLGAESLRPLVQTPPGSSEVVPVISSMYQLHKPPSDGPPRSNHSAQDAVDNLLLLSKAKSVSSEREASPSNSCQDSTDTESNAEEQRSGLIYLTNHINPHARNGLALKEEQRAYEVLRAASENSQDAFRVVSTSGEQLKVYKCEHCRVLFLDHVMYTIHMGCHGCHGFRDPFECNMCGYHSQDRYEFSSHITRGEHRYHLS
UniProt O08900: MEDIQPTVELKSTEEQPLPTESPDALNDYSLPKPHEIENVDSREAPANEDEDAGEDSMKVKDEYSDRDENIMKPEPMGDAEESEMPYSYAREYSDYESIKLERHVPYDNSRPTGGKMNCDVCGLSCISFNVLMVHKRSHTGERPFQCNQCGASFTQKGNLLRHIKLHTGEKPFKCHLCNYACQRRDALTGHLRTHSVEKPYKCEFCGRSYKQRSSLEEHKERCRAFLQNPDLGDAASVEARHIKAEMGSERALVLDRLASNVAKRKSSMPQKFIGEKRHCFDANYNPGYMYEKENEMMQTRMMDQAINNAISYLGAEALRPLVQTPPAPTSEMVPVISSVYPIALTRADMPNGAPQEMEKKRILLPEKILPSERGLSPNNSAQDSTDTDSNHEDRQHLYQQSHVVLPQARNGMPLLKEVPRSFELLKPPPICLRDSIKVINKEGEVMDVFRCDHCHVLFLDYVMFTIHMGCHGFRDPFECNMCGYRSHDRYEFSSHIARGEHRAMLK

Row | binding | Substance
1 | binds | CHD4, endogenous, in activated mouse CD8+ T cells (from UniProt Q6PDQ2 1-1915)
2 | binds | IKZF1, endogenous, in activated mouse CD8+ T cells (from UniProt Q03267 1-517)
3 | binds | IKZF3, endogenous, in activated mouse CD8+ T cells (from UniProt O08900 1-507)
